This note sets out measurements from publication PMC11871461.

The chains behind the UniProt entries cited, without tags or fusion partners.
UniProt Q6ZNE5: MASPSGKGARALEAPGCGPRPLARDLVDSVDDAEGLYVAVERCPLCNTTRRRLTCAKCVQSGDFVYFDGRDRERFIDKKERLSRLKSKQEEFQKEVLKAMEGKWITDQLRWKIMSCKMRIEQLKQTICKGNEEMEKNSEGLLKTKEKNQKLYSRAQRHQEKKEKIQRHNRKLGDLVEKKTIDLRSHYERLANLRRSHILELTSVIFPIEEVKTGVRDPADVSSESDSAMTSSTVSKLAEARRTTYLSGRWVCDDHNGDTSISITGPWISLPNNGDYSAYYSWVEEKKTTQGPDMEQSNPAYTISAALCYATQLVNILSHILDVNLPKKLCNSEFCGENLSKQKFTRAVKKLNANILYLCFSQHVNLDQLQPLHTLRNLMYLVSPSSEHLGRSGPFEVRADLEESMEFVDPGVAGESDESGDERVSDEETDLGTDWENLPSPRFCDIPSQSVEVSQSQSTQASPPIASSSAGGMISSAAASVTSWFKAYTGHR

One assay deals with T1, USP1 in PANC-1 cells (UniProt O94782).
T1 sequence: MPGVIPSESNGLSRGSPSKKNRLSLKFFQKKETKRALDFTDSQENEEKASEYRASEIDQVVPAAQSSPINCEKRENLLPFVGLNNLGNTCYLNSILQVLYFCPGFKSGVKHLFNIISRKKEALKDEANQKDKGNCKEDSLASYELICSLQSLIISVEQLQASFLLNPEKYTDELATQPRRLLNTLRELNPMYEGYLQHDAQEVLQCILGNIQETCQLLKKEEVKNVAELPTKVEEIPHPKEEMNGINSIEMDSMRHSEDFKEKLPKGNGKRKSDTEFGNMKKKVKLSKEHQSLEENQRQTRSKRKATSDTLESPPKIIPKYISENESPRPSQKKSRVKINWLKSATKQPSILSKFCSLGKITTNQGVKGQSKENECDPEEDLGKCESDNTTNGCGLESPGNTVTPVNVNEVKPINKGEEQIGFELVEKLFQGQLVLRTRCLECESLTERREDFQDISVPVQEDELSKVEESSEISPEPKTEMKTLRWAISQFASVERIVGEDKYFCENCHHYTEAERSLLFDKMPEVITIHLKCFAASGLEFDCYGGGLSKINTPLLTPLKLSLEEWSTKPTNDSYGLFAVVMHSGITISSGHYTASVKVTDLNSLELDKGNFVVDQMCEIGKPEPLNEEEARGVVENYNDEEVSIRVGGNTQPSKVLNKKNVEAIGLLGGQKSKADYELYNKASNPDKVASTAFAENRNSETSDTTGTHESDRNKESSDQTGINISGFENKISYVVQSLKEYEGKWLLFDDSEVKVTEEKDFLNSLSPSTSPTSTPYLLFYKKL
Put plainly: co-IP; PANC-1 cells; lysed in IP lysis buffer; anti-HA/Myc magnetic beads at 4 °C overnight; Western blot; bait not given.

Assay [1] concerns the target T2, HA-tagged USP1 (ubiquitin-specific peptidase 1), WT (UniProt O94782).
T2 sequence: T1 sequence
Put plainly: co-IP; HEK-293T cells transfected with the indicated plasmids; lysed in IP lysis buffer; USP1 precipitated (anti-HA magnetic beads) at 4 °C overnight; Western blot.

These are yes or no findings as the source states them, for the method shown. In cells and extracts the contact can be indirect. Some binding calls cover weakened binding; strength is not graded here. For some assays here: Sequences can lack the tags named with a protein.

On to “ATG14 in PANC-1 cells (from UniProt Q6ZNE5 1-492)”, for which, in the assay with USP1 in PANC-1 cells, the binding result is “binds”.
Take “Myc-ATG14 (autophagy-related gene 14) (from UniProt Q6ZNE5 1-492)”: the binding entry in assay [1] is “binds”.
